Common to all, as to assay: EMSA
One data set addresses DmDM15 (fruit fly) (UniProt A0A0B4K7Y7). The note with it: uncapped, 5' phosphate (PNK), no cap, EMSA: 20 mM Tris-HCl pH 8, 150 mM NaCl, 10% glycerol, 1 mM DTT, 0.5 ug tRNA, 1 ug BSA, pM RNA (95 C, snap cooled), 0.5-1 h on ice, native 7% PAGE, 0.5X TBE, recombinant protein, protein details: His6-MBP removed by TEV, label: 5' 32P.
For the next data set, the target named is DrDM15 (zebrafish) (UniProt F1R0U5). The note with it: EMSA: 20 mM Tris-HCl pH 8, 150 mM NaCl, 10% glycerol, 1 mM DTT, 0.5 ug tRNA, 1 ug BSA, pM RNA (95 C, snap cooled), native 7% PAGE, 0.5X TBE, recombinant protein. On the technique in general: Mobility shift assays separate free from complexed probe on a gel.
A further data set concerns HsDM15 (Homo sapiens). Conditions: EMSA: 20 mM Tris-HCl pH 8, 150 mM NaCl, 10% glycerol, 1 mM DTT, 0.5 ug tRNA, 1 ug BSA, pM RNA (95 C, snap cooled), native 7% PAGE, 0.5X TBE, recombinant protein, protein details: His6-MBP removed by TEV.
Where [1] appears, read: uncapped, 5' phosphate (PNK), no cap, 0.5-1 h on ice, label: 5' 32P.
Setting [2] is: uncapped, enhanced vs PABPC1, 5' phosphate (PNK), no cap, 0.5-1 h on ice, label: 5' 32P.
[3] abbreviates: 5' m7G cap (Vaccinia capping), 0.5-1 h on …, label: 32P in cap.

The chains behind the UniProt entries cited, without tags or fusion partners.
UniProt A0A0B4K7Y7, entry or part of it: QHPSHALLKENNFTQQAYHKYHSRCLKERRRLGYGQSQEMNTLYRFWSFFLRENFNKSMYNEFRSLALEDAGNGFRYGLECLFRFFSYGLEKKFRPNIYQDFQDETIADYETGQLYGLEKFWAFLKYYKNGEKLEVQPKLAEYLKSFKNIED

For some assays here: Negatives hold for the conditions tested. At least one verdict rests on a figure or table, not on a statement of the authors. For at least one entry, the source does not settle the construct or the ends of the probe. Weaker means in comparison with the reference protein, sequence or condition of that experiment.

Regarding “CCUCUUUUCCGCUUAUCUCUUUGAGAUAAAUGCAUAUUUUUU [HsRPS6_Stem, uncapped]”, the binding result with DmDM15 (fruit fly), with DrDM15 (zebrafish) (setting [1]) and with HsDM15 (Homo sapiens) (setting [1]) was “binds” in each case.
Take “CCUCUUUUCCGUGGCGCCUCGGAGGCGUUCAGCUGCUUCAAG [HsRPS6 5' UTR, uncapped]”: the binding result with DmDM15 (fruit fly), with DrDM15 (zebrafish) (setting [1]) and in the data set on HsDM15 (Homo sapiens) (setting [1]) was “binds” in each case.
With “CCUUCUCCCCGCUUAUCUCUUUGAGAUAAAUGCAUAUUUUUU [HsPABPC1_Stem, uncapped]”, the binding result with DmDM15 (fruit fly) (enhanced vs PABPC1), in the data set with DrDM15 (zebrafish) (setting [2]) and in the data set on HsDM15 (Homo sapiens) (setting [2]) was “binds” throughout.
For the sequence “CCUUCUCCCCGGCGGUUAGUGCUGAGAGUGCGGAGUGUGUGC [HsPABPC1 5' UTR, uncapped]”, the binding result in the data set with DmDM15 (fruit fly), with DrDM15 (zebrafish) (setting [1]) and in the data set with HsDM15 (Homo sapiens) (setting [1]) was “binds more weakly” throughout.
Consider “GAAAAGCCAUUGUCAGCCGACGAAGUGCUUUAACCCAAACUA [ΔTOP_DmRPL30 42-mer, capped]”, for which the binding result with DrDM15 (zebrafish) (setting [3]) and in the data set with HsDM15 (Homo sapiens) (setting [3]) was “no binding” in each case.
Turning to “GGAGAAAAGGGCUUAUCUCUUUGAGAUAAAUGCAUAUUUUUU [ΔTOP_HsRPS6_Stem, uncapped]”, the binding result with DmDM15 (fruit fly), in the data set with DrDM15 (zebrafish) (setting [1]) and with HsDM15 (Homo sapiens) (setting [1]) was “binds more weakly” each time.

These data come from PMC11349179, “Comparative analysis of the LARP1 C-terminal DM15 region through Coelomate evolution” (PLOS ONE, 2024).
